The values that follow come from the supplement of paper PMC10849652.

Protein sequences, listed by entry. Tags and fused reporters are not part of them. Lines headed by an entry give the natural chain unless they say otherwise; changes in a name come on top.
UniProt P41567, whole entry, looked up: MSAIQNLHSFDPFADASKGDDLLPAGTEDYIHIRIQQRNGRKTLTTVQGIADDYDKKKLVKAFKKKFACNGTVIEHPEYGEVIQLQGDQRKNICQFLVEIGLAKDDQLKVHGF
UniProt Q01658: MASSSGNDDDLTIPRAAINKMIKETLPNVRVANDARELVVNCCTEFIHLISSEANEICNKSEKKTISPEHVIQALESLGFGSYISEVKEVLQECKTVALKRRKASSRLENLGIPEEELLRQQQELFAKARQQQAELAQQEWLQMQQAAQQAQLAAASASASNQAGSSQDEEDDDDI
UniProt Q9BVJ7: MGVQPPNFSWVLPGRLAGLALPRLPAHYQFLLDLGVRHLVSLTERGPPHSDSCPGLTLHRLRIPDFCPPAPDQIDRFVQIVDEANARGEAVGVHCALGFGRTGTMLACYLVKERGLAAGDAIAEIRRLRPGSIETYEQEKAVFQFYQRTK
UniProt Q14204, whole entry, looked up: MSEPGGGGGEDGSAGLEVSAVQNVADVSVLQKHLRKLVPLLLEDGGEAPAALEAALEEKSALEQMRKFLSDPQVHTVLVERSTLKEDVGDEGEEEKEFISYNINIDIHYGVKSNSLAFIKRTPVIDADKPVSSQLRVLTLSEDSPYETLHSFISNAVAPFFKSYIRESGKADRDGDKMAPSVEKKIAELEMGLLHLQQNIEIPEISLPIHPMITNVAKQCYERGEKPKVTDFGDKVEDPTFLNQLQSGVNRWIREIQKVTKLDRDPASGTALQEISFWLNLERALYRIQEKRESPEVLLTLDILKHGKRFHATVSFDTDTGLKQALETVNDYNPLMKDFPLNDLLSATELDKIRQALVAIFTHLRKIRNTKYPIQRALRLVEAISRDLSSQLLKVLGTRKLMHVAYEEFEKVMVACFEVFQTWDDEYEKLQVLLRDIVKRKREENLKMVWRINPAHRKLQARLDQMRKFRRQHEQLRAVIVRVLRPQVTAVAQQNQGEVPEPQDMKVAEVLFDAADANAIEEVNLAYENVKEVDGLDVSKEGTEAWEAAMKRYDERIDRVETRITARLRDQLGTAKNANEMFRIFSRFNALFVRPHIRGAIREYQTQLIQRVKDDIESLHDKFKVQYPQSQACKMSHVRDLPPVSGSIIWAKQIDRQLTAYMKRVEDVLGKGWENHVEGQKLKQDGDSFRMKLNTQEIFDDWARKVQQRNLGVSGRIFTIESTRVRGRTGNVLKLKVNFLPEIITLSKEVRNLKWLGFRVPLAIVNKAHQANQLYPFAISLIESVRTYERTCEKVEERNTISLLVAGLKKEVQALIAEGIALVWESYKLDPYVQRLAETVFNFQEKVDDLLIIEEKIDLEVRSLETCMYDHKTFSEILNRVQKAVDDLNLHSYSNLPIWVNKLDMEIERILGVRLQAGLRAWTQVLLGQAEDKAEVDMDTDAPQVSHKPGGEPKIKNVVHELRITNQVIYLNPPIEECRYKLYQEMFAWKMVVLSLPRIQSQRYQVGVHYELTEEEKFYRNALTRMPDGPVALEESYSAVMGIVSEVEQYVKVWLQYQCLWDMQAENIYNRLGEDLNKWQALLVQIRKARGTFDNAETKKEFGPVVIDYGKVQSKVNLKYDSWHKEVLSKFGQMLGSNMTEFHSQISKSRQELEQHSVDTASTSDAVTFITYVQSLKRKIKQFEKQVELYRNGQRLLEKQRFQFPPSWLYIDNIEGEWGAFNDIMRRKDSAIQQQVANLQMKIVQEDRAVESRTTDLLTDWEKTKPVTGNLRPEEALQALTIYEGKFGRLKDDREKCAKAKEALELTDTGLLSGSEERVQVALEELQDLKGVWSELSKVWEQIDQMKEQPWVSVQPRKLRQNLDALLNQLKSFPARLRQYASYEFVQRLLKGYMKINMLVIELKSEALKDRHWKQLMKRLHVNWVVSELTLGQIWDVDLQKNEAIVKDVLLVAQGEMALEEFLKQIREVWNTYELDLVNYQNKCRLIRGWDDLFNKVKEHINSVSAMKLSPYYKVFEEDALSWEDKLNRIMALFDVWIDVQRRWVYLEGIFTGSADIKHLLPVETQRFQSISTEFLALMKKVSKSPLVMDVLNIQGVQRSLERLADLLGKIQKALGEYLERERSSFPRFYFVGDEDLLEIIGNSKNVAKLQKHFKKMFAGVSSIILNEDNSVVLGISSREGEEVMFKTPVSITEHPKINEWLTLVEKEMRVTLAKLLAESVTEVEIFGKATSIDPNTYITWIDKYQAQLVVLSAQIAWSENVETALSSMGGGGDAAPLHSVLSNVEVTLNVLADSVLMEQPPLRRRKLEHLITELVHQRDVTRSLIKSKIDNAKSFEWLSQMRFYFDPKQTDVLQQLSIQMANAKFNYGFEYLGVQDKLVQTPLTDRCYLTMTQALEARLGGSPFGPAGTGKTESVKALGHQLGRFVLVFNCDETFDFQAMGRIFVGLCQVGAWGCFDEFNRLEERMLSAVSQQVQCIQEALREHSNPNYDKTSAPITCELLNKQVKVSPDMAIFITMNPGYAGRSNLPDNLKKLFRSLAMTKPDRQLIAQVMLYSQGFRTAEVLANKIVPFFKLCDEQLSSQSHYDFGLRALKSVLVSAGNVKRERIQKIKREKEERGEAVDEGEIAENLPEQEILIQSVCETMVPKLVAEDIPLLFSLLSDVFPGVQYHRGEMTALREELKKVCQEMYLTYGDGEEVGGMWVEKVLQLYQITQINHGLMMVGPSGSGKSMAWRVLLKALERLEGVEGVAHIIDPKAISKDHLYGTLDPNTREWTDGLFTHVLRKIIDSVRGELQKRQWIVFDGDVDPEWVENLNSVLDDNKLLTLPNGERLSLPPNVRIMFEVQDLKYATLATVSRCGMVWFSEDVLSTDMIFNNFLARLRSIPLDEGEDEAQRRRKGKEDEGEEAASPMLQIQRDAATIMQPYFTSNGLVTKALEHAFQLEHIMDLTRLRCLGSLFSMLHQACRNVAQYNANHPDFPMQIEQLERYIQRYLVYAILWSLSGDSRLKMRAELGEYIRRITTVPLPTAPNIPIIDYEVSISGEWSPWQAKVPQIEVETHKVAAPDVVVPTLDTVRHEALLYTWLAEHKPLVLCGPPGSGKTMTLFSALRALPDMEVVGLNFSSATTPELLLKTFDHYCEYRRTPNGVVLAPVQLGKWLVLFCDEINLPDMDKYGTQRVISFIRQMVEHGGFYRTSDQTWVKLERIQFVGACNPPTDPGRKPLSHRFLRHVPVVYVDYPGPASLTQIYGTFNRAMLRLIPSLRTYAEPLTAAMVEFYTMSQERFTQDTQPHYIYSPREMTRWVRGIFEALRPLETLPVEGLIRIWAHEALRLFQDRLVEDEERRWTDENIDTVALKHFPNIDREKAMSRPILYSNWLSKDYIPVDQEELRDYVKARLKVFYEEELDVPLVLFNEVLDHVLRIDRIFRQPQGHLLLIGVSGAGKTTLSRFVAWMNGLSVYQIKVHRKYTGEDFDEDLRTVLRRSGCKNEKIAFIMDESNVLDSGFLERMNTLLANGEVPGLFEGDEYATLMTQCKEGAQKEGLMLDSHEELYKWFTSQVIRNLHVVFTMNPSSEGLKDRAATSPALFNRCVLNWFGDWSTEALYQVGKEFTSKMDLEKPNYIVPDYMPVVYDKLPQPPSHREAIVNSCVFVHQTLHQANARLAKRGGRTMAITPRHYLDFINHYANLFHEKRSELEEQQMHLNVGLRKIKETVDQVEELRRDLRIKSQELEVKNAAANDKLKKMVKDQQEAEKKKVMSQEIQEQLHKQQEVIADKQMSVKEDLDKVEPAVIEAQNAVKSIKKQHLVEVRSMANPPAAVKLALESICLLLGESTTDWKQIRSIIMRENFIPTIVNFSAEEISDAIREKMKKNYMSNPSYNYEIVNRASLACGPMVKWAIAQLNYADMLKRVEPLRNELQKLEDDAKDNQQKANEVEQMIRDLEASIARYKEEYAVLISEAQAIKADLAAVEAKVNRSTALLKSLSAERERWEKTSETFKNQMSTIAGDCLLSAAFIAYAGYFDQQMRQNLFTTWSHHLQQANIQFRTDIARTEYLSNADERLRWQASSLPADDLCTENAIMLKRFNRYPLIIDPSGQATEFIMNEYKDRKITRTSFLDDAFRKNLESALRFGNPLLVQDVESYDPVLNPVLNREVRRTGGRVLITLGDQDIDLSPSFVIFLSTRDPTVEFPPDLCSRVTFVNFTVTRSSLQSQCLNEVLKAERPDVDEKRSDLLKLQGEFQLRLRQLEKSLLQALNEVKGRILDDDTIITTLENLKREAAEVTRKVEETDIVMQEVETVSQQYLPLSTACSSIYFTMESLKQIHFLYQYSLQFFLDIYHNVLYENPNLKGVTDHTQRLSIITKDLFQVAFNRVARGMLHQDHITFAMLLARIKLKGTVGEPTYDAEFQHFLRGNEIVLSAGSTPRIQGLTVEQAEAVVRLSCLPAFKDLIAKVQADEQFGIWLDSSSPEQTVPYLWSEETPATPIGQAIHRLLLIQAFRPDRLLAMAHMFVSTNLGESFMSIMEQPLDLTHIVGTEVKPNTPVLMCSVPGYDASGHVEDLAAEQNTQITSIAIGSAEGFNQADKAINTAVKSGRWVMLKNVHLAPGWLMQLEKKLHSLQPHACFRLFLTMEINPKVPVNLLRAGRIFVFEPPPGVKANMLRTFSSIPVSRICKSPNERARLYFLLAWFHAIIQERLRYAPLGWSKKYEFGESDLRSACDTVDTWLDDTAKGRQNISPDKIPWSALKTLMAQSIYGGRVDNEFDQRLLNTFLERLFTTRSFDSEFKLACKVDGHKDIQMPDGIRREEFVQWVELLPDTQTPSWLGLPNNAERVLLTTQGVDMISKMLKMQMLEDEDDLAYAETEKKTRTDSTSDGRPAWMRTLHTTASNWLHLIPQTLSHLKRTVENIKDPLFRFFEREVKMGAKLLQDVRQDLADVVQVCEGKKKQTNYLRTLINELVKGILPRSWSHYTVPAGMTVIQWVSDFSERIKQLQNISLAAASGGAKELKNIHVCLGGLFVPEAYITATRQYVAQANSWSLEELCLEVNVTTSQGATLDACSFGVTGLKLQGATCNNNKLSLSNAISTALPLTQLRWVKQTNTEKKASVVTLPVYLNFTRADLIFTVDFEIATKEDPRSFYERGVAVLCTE
UniProt O60869: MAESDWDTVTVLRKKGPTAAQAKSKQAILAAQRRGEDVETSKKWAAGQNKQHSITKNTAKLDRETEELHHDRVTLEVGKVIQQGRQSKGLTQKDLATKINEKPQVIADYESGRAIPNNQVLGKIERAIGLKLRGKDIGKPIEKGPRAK
UniProt O00716: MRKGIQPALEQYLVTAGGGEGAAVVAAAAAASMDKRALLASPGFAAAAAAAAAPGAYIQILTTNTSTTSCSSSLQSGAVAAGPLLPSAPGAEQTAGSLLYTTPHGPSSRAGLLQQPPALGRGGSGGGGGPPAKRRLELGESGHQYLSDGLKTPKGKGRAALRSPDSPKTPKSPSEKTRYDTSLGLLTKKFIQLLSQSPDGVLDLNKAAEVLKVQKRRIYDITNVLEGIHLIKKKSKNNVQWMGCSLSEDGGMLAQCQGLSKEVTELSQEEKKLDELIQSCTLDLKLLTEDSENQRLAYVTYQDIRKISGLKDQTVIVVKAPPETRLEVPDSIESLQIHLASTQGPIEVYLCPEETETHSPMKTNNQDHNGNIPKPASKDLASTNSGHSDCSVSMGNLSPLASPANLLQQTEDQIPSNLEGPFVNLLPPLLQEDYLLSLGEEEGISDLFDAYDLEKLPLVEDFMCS
UniProt Q92785, whole entry, looked up: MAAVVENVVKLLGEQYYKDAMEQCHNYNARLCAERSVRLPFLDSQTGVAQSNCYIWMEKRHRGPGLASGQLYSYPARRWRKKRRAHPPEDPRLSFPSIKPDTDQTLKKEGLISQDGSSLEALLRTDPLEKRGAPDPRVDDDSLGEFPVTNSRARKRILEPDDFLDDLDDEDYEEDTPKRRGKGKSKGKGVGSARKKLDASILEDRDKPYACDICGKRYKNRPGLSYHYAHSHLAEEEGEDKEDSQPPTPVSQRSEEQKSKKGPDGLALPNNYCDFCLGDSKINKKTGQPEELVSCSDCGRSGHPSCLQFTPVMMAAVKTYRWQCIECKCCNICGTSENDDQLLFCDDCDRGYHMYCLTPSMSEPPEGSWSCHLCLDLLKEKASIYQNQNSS
UniProt P26641, whole entry, looked up: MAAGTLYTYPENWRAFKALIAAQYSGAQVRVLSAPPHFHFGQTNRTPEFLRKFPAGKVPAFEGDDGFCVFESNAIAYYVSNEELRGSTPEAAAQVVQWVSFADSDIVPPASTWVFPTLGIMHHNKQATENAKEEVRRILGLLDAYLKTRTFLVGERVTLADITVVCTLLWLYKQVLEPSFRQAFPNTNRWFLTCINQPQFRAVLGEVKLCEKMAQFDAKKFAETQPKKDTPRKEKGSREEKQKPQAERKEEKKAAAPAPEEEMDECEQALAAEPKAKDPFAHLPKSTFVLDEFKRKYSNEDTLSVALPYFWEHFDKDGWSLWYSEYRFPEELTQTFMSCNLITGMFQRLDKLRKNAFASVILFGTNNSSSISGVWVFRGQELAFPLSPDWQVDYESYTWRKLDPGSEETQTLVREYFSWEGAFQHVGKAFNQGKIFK

The list shows a part of the results.

Compound in one test: CCCS(=O)(=O)Nc1ccc(F)c(C(=O)c2c[nH]c3ncc(-c4ccc(Cl)cc4)cc23)c1F [vemurafenib]
As to the kind of experiment: log2 fold change, soluble protein after heating vs DMSO (PISA); higher = thermal stabilisation; K562 lysate, 10 uM; active = over 0.2 and 3.5 SD of the protein, either way, in both replicates (recomputed). The gist of the method: (§1)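 Thermal stability, expressed as log-two fold change relative to solvent controls, is given from duplicates. Crude K562 extract in PBS pH 7.4 with 1 mM MgCl2, at 1 mg/mL protein, was treated with 10 μM compound for 30 min and heated in aliquots for 3 min across 48°C-58°C. After pooling, adjustment to 0.5% NP-40 at 4°C and centrifugation at 21,000xg for 90 min, supernatant protein was measured by TMTpro 16plex LC-MS/MS with channel sums equalised.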
EEF1A1P5 (UniProt Q5VTE0): the log2 fold change is inactive: 0.022.

In the case of DRG2 (UniProt P55039), the log2 fold change is inactive: 0.036.

DTYMK (UniProt P23919): the log2 fold change was inactive: -0.008.

Take EARS2 (UniProt Q5JPH6): the log2 fold change is inactive: 0.042.

Take EIF1 (UniProt P41567): the log2 fold change is inactive: 0.013.

Take EEF2 (UniProt P13639): the log2 fold change was inactive: -0.012.

For EIF1AX (UniProt P47813), the log2 fold change was inactive: -0.002.

Turning to ECH1 (UniProt Q13011), the log2 fold change is inactive: -0.003.

In the case of EEF1B2 (UniProt P24534), the log2 fold change is inactive: 0.007.

Regarding DUSP9 (UniProt Q99956), the log2 fold change was inactive: 0.

Take ECHDC3 (UniProt Q96DC8): the log2 fold change was inactive: 0.163.

On to DR1 (UniProt Q01658), for which the log2 fold change is inactive: -0.031.

As to DPP7 (UniProt Q9UHL4), the log2 fold change was inactive: 0.078.

Regarding DYNLT1 (UniProt P63172), the log2 fold change is inactive: 0.007.

Regarding DPH2 (UniProt Q9BQC3), the log2 fold change was inactive: -0.008.

As to DUSP23 (UniProt Q9BVJ7), the log2 fold change was inactive: 0.031.

In the case of DYNC1H1 (UniProt Q14204), the log2 fold change was inactive: -0.005.

With EFL1 (UniProt Q7Z2Z2), the log2 fold change was inactive: -0.014.

With DPY19L1, A0A1B0GW05, the log2 fold change was inactive: 0.092.

Consider EDF1 (UniProt O60869), for which the log2 fold change is inactive: -0.01.

Turning to EHMT2 (UniProt A2ABF8), the log2 fold change is inactive: -0.026.

Turning to E2F3 (UniProt O00716), the log2 fold change is inactive: 0.077.

Turning to EEF1AKMT2, A0A494BZY7, the log2 fold change was inactive: -0.04.

On to E2F4 (UniProt Q16254), for which the log2 fold change is inactive: -0.035.

As for DUSP12 (UniProt Q9UNI6), the log2 fold change was inactive: 0.029.

Regarding DUT (UniProt P33316), the log2 fold change was inactive: 0.032.

As for DSG2 (UniProt Q14126), the log2 fold change was inactive: 0.024.

EIF1AD (UniProt Q8N9N8): the log2 fold change is inactive: -0.047.

In the case of DPF2 (UniProt Q92785), the log2 fold change is inactive: 0.039.

Consider EEF1AKNMT (UniProt Q8N6R0), for which the log2 fold change is inactive: -0.007.

For EDEM3 (UniProt Q9BZQ6), the log2 fold change is inactive: 0.02.

Regarding EEF1G isoform 2 (UniProt P26641), the log2 fold change was inactive: -0.047.

Compound in the next test: CCCS(=O)(=O)Nc1ccc(F)c(C(=O)c2c[nH]c3ncc(Cl)cc23)c1F
The test is described as above. The gist of the method: as §1
Consider EEF1A1P5 (UniProt Q5VTE0), for which the log2 fold change is inactive: 0.002.

For the target DRG2 (UniProt P55039), the log2 fold change is inactive: 0.027.

Take DTYMK (UniProt P23919): the log2 fold change is inactive: 0.042.

On to EARS2 (UniProt Q5JPH6), for which the log2 fold change is inactive: 0.051.

Turning to EIF1 (UniProt P41567), the log2 fold change was inactive: -0.014.

As to EEF2 (UniProt P13639), the log2 fold change is inactive: -0.002.

Turning to EIF1AX (UniProt P47813), the log2 fold change was inactive: 0.118.

On to ECH1 (UniProt Q13011), for which the log2 fold change is inactive: -0.025.

As for EEF1B2 (UniProt P24534), the log2 fold change is inactive: -0.043.

DUSP9 (UniProt Q99956): the log2 fold change is inactive: 0.034.

In the case of ECHDC3 (UniProt Q96DC8), the log2 fold change is inactive: -0.004.

Regarding DR1 (UniProt Q01658), the log2 fold change was inactive: -0.019.

With DPP7 (UniProt Q9UHL4), the log2 fold change was inactive: -0.015.

Turning to DYNLT1 (UniProt P63172), the log2 fold change is inactive: -0.057.

Consider DPH2 (UniProt Q9BQC3), for which the log2 fold change is inactive: 0.019.

On to DUSP23 (UniProt Q9BVJ7), for which the log2 fold change is inactive: 0.

For the target DYNC1H1 (UniProt Q14204), the log2 fold change is inactive: 0.008.

On to EFL1 (UniProt Q7Z2Z2), for which the log2 fold change is inactive: 0.03.

For the target DPY19L1, A0A1B0GW05, the log2 fold change was inactive: 0.013.

Turning to EDF1 (UniProt O60869), the log2 fold change was inactive: -0.042.

For EHMT2 (UniProt A2ABF8), the log2 fold change is inactive: -0.001.

E2F3 (UniProt O00716): the log2 fold change is inactive: -0.043.

EEF1AKMT2, A0A494BZY7: the log2 fold change is inactive: 0.041.

As to E2F4 (UniProt Q16254), the log2 fold change is inactive: 0.007.

Turning to DUSP12 (UniProt Q9UNI6), the log2 fold change was inactive: 0.02.

Take DUT (UniProt P33316): the log2 fold change is inactive: 0.

Take DSG2 (UniProt Q14126): the log2 fold change was inactive: 0.007.

In the case of EIF1AD (UniProt Q8N9N8), the log2 fold change was inactive: 0.002.

As for DPF2 (UniProt Q92785), the log2 fold change is inactive: 0.049.

EEF1AKNMT (UniProt Q8N6R0): the log2 fold change is inactive: 0.041.

For EDEM3 (UniProt Q9BZQ6), the log2 fold change was inactive: 0.04.

For the target EEF1G isoform 2 (UniProt P26641), the log2 fold change is inactive: -0.021.

Compound in a further test: CCN(CCCOc1ccc2c(Nc3cc(CC(=O)Nc4cccc(F)c4)[nH]n3)ncnc2c1)CCOP(=O)(O)O [barasertib]
Described as above. The gist of the method: as §1
On to EEF1A1P5 (UniProt Q5VTE0), for which the log2 fold change is inactive: -0.017.

With DRG2 (UniProt P55039), the log2 fold change is inactive: 0.027.

For the target DTYMK (UniProt P23919), the log2 fold change is inactive: 0.022.

For EARS2 (UniProt Q5JPH6), the log2 fold change is inactive: 0.056.

As to EIF1 (UniProt P41567), the log2 fold change was inactive: -0.053.

EEF2 (UniProt P13639): the log2 fold change is inactive: -0.028.

Turning to EIF1AX (UniProt P47813), the log2 fold change is inactive: -0.053.

ECH1 (UniProt Q13011): the log2 fold change is inactive: -0.008.

Take EEF1B2 (UniProt P24534): the log2 fold change is inactive: -0.028.

Turning to DUSP9 (UniProt Q99956), the log2 fold change is inactive: 0.014.

Regarding ECHDC3 (UniProt Q96DC8), the log2 fold change is inactive: -0.086.

As to DR1 (UniProt Q01658), the log2 fold change is inactive: 0.037.

As for DPP7 (UniProt Q9UHL4), the log2 fold change was inactive: 0.035.

Turning to DYNLT1 (UniProt P63172), the log2 fold change is inactive: -0.031.

Regarding DPH2 (UniProt Q9BQC3), the log2 fold change is inactive: -0.01.

In the case of DUSP23 (UniProt Q9BVJ7), the log2 fold change is inactive: 0.188.

On to DYNC1H1 (UniProt Q14204), for which the log2 fold change was inactive: 0.016.

For the target EFL1 (UniProt Q7Z2Z2), the log2 fold change was inactive: 0.01.

Regarding DPY19L1, A0A1B0GW05, the log2 fold change is inactive: -0.1.

In the case of EDF1 (UniProt O60869), the log2 fold change is inactive: -0.033.

Consider EHMT2 (UniProt A2ABF8), for which the log2 fold change was inactive: 0.066.

For E2F3 (UniProt O00716), the log2 fold change was inactive: 0.033.

As for EEF1AKMT2, A0A494BZY7, the log2 fold change is inactive: -0.023.

As for E2F4 (UniProt Q16254), the log2 fold change was inactive: 0.101.

As for DUSP12 (UniProt Q9UNI6), the log2 fold change is inactive: -0.017.

With DUT (UniProt P33316), the log2 fold change was inactive: -0.086.

Consider DSG2 (UniProt Q14126), for which the log2 fold change is inactive: -0.033.

On to EIF1AD (UniProt Q8N9N8), for which the log2 fold change is inactive: -0.052.

As for DPF2 (UniProt Q92785), the log2 fold change was inactive: 0.025.

On to EEF1AKNMT (UniProt Q8N6R0), for which the log2 fold change was inactive: 0.008.

Regarding EDEM3 (UniProt Q9BZQ6), the log2 fold change is inactive: 0.046.

Turning to EEF1G isoform 2 (UniProt P26641), the log2 fold change was inactive: 0.
